Laboratory results as given in the supplement of paper PMC10331698.
± gives the standard deviation of the averaged measurements. Most values lie at the level of the controls, where differences are scatter.

Tests used:
Experiment in all cases: level (log10 ratio to DMSO vehicle control); higher = higher biomarker level / cell amount than vehicle control
[1] = compound: C=C(C)C(=O)OCC(F)(F)C(F)(F)C(F)(F)F [2,2,3,3,4,4,4-Heptafluorobutyl methacrylate]; conditions: 2200 nM; in DMSO
Experimental: (§1)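 BioMAP Diversity Plus panel of 12 human primary cell co-culture systems (3C, 4H, LPS, SAg, BT, BF4T, BE3C, CASM3C, HDF3CGF, KF3CT, MyoF, Mphg). Compounds were added 1 h before stimulation and left for 24 h (MyoF 48 h; BT 72 h for soluble read-outs or 6 d for IgG). Biomarkers were read by ELISA, cytotoxicity by SRB, PBMC viability and proliferation by Alamar Blue. Each well value was divided by the mean of 8 DMSO control wells on the same plate and log10 transformed; duplicate blinded samples were tested at 4 concentrations.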

[2] = compound: C=CC(=O)OCC(F)(F)C(F)(F)C(F)(F)C(F)(F)COC(=O)C=C [1H,1H,6H,6H-Perfluorohexane-1,6-diol diacrylate]; conditions: 2200 nM; in DMSO
Experimental: as §1

[3] = compound: FC(F)(F)C(F)(F)C(F)(F)C(F)(F)C(F)(F)C(F)(F)C(F)(F)CCI [1-Iodo-1H,1H,2H,2H-perfluorononane]; conditions: in DMSO
Experimental: as §1

[4] = compound: FC(F)(F)C(F)(F)C(F)(F)C(F)(F)C(F)(F)C(F)(F)C(F)(F)I [1-Iodopentadecafluoroheptane]; conditions: in DMSO
Experimental: as §1

[5] = compound: FC(F)C(F)(F)COCC1CO1 [((2,2,3,3-Tetrafluoropropoxy)methyl)oxirane]; conditions: 2200 nM; in DMSO
Experimental: as §1

Perfluorooctanamide = compound: NC(=O)C(F)(F)C(F)(F)C(F)(F)C(F)(F)C(F)(F)C(F)(F)C(F)(F)F [Perfluorooctanamide]; conditions: 2200 nM; in DMSO
Experimental: as §1

Perfluoroundecanoic acid = compound: O=C(O)C(F)(F)C(F)(F)C(F)(F)C(F)(F)C(F)(F)C(F)(F)C(F)(F)C(F)(F)C(F)(F)C(F)(F)F [Perfluoroundecanoic acid]; conditions: in DMSO
Experimental: as §1

[6] = compound: O=C(O)C(F)(F)C(F)(F)C(F)(F)C(F)(F)C(F)(F)C(F)(F)C(F)(F)C(F)F [9-H-Perfluorononanoic acid]; conditions: 2200 nM; in DMSO
Experimental: as §1

Perfluorobutanoic acid = compound: O=C(O)C(F)(F)C(F)(F)C(F)(F)F [Perfluorobutanoic acid]; conditions: 2200 nM; in DMSO
Experimental: as §1

Perfluoropropanoic acid = compound: O=C(O)C(F)(F)C(F)(F)F [Perfluoropropanoic acid]; conditions: 2200 nM; in DMSO
Experimental: as §1

[7] = compound: O=C(O)C(F)(F)C(F)(F)OC(F)(F)F [Perfluoro-3-methoxypropanoic acid]; conditions: 2200 nM; in DMSO
Experimental: as §1

[8] = compound: O=C(O)C(F)(F)OC(F)(F)C(F)(F)OC(F)(F)C(=O)O [Perfluoro-3,6-dioxaoctane-1,8-dioic acid]; conditions: 2200 nM; in DMSO
Experimental: as §1

[9] = compound: O=C(O)C(F)(F)OC(F)(F)C(F)(F)OC(F)(F)C(F)(F)C(F)(F)C(F)(F)F [Perfluoro-3,6-dioxadecanoic acid]; conditions: 2200 nM; in DMSO
Experimental: as §1

[10] = compound: O=C(O)C=CC(F)(C(F)(F)F)C(F)(F)F [3-(Perfluoroisopropyl)-2-propenoic acid]; conditions: in DMSO
Experimental: as §1

[11] = compound: O=P(O)(O)CCC(F)(F)C(F)(F)C(F)(F)C(F)(F)C(F)(F)C(F)(F)C(F)(F)C(F)(F)F [((Perfluorooctyl)ethyl)phosphonic acid]; conditions: 2200 nM; in DMSO
Experimental: as §1

[12] = compound: O=S(=O)(Cl)C(F)(F)C(F)(F)C(F)(F)C(F)(F)C(F)(F)C(F)(F)C(F)(F)C(F)(F)F [Perfluoro-1-octanesulfonyl chloride]; conditions: 2200 nM; in DMSO
Experimental: as §1

[13] = compound: OCC(F)(F)C(F)(F)C(F)(F)C(F)(F)C(F)(F)C(F)(F)C(F)(F)C(F)(F)C(F)(F)C(F)(F)C(F)(F)F [11:1 Fluorotelomer alcohol]; conditions: in DMSO
Experimental: as §1

[14] = compound: OCCC(F)(F)C(F)(F)C(F)(F)C(F)(F)C(F)(F)C(F)(F)C(F)(F)C(F)(F)F [8:2 Fluorotelomer alcohol]; conditions: 2200 nM; in DMSO
Experimental: as §1

Test System	level (log10) [1]	level (log10) [2]	level (log10) ([3]; 740 nM)	level (log10) ([3]; 2200 nM)	level (log10) ([3]; 6700 nM)	level (log10) ([3]; 20000 nM)	level (log10) ([4]; 740 nM)	level (log10) ([4]; 2200 nM)	level (log10) ([4]; 6700 nM)	level (log10) ([4]; 20000 nM)	level (log10) [5]	level (log10) (Perfluorooctanamide)	level (log10) (Perfluoroundecanoic acid; 740 nM)	level (log10) (Perfluoroundecanoic acid; 2200 nM)	level (log10) [6]	level (log10) (Perfluorobutanoic acid)	level (log10) (Perfluoropropanoic acid)	level (log10) [7]	level (log10) [8]	level (log10) [9]	level (log10) ([10]; 2200 nM)	level (log10) ([10]; 6700 nM)	level (log10) ([10]; 20000 nM)	level (log10) ([10]; 60000 nM)	level (log10) [11]	level (log10) [12]	level (log10) ([13]; 370 nM)	level (log10) ([13]; 1100 nM)	level (log10) ([13]; 3300 nM)	level (log10) ([13]; 10000 nM)	level (log10) [14]
KF3CT:CXCL10/IP-10	0.001 ± 0.0071	-0.01 ± 0.0085	0.0005 ± 0.00071	-0.0015 ± 0.0078	-0.0065 ± 0.005	-0.0235 ± 0.0092	0.001 ± 0.0028	-0.0025 ± 0.005	-0.005 ± 0.014	-0.0085 ± 0.00071	0.0035 ± 0.011	0.035 ± 0.061	0.006 ± 0.0014	-0.008 ± 0.0057	-0.0005 ± 0.0064	0.004 ± 0.0085	0.0095 ± 0.013	0.02 ± 0.028	0.0145 ± 0.021	-0.0095 ± 0.00071	0.007 ± 0.047	0.0105 ± 0.035	0.0075 ± 0.032	0.0125 ± 0.023	0.0145 ± 0.03	-0.0055 ± 0.00071	-0.0005 ± 0.0035	0.003 ± 0.0042	-0.002 ± 0.0057	0.0085 ± 0.0035	-0.011 ± 0.02
KF3CT:IL-1alpha	0.001 ± 0.028	-0.007 ± 0.016	0.036 ± 0.018	-0.0025 ± 0.005	-0.01 ± 0.0071	0.019 ± 0.047	-0.005 ± 0.0071	-0.001 ± 0.011	-0.006 ± 0.0042	-0.004 ± 0.0071	0.0085 ± 0.021	0.0085 ± 0.011	0.005 ± 0.0071	-0.003 ± 0.0028	0.024 ± 0.027	0.0205 ± 0.028	0.025 ± 0.088	0.0045 ± 0.0064	0.016 ± 0.0071	0.0025 ± 0.04	0.0065 ± 0.0035	-0.0025 ± 0.0064	0.0025 ± 0.0092	0.001 ± 0.017	0.0305 ± 0.00071	-0.0125 ± 0.025	-0.012 ± 0.025	0.0015 ± 0.028	-0.0425 ± 0.0064	-0.021 ± 0.011	-0.011 ± 0.02
KF3CT:MMP-9	-0.012 ± 0.0028	0.007 ± 0.045	0.0025 ± 0.026	0.005 ± 0.0042	-0.006 ± 0.0042	0.0165 ± 0.013	-0.04 ± 0.051	-0.0815 ± 0.087	-0.05 ± 0.11	-0.0495 ± 0.056	0.0155 ± 0.033	-0.001 ± 0.02	-0.066 ± 0.018	-0.0335 ± 0.0092	-0.028 ± 0.025	0.01 ± 0.023	-0.0135 ± 0.032	0.0015 ± 0.0021	-0.0015 ± 0.0021	-0.004 ± 0.038	0.006 ± 0.011	-0.0175 ± 0.016	0.006 ± 0.0071	0.018 ± 0.014	0.0075 ± 0.0078	-0.0155 ± 0.016	-0.029 ± 0.038	-0.042 ± 0.0099	-0.071 ± 0.027	-0.0545 ± 0.026	-0.042 ± 0.011
KF3CT:PAI-I	0.001 ± 0.018	0.014 ± 0.0099	0.02 ± 0.014	0.004	0.0115 ± 0.022	0.017 ± 0.021	-0.0045 ± 0.018	-0.02 ± 0.011	-0.0055 ± 0.04	-0.0275 ± 0.028	0.0065 ± 0.00071	-0.0035 ± 0.013	0.003	-0.006 ± 0.018	0.0125 ± 0.012	0.0015 ± 0.029	0.047 ± 0.0085	-0.023 ± 0.014	-0.0175 ± 0.0035	0.0025 ± 0.005	0.0155 ± 0.025	0.0045 ± 0.0092	0.023 ± 0.0085	0.0165 ± 0.0021	-0.0175 ± 0.00071	-0.007 ± 0.014	-0.002 ± 0.0057	-0.002 ± 0.0071	-0.0055 ± 0.012	0.001 ± 0.023	-0.0255 ± 0.018
